This data set is described as follows: general procedure: solution-phase peptide synthesis; HATU. The settings on record: for step yield: late stage modification step.

With “((2R,3R)-3-((S)-1-((3R,4S,5S)-4-((S)-2-((S)-2-(4-(hydroxydimethylsilyl)-N-methylbutanamido)-3-methylbutanamido)-N,3-dimethylbutanamido)-3-methoxy-5-methylheptanoyl)pyrrolidin-2-yl)-3-methoxy-2-methylpropanoyl)-L-phenylalanine”, the step yield came to 33.4%. The “crude LC-MS purity” value (conjugation step) came to 80%.
“(R)—N-((3S,4R,5R)-1-((R)-2-((1S,2S)-3-(((1R,2S)-1-hydroxy-1-phenylpropan-2-yl)amino)-1-methoxy-2-methyl-3-oxopropyl)pyrrolidin-1-yl)-3-methoxy-5-methyl-1-oxoheptan-4-yl)-2-((R)-2-(3-(3-(hydroxydimethylsilyl)propyl)-1-methylureido)-3-methylbutanamido)-N,3-dimethylbutanamide” came in with a step yield of 40.8%.
The same measure, in the same setting: to “(S)—N-((3R,4S,5S)-1-((S)-2-((3R,4R,7S)-7-benzyl-13-hydroxy-4,13-dimethyl-5,8-dioxo-2-oxa-6,9-diaza-13-silatetradecan-3-yl)pyrrolidin-1-yl)-3-methoxy-5-methyl-1-oxoheptan-4-yl)-2-((S)-2-(dimethylamino)-3-methylbutanamido)-N,3-dimethylbutanamide” belongs 32.5%; to “(R)—N-((3S,4R,5R)-1-((R)-2-((1S,2S)-3-(((1R,2S)-1-hydroxy-1-phenylpropan-2-yl)amino)-1-methoxy-2-methyl-3-oxopropyl)pyrrolidin-1-yl)-3-methoxy-5-methyl-1-oxoheptan-4-yl)-2-((R)-2-(4-(hydroxydimethylsilyl)-N-methylbutanamido)-3-methylbutanamido)-N,3-dimethylbutanamide”, 45%.
